In article PMC7069958:
No constants are given. Whether binding was seen depends on the method and setting. In cells and extracts the contact can be indirect. Some results given as binding are weak or reduced against the parent protein; the word gives no strength.

Chains of the proteins cited; added tags and fusions are not shown.
UniProt P83949: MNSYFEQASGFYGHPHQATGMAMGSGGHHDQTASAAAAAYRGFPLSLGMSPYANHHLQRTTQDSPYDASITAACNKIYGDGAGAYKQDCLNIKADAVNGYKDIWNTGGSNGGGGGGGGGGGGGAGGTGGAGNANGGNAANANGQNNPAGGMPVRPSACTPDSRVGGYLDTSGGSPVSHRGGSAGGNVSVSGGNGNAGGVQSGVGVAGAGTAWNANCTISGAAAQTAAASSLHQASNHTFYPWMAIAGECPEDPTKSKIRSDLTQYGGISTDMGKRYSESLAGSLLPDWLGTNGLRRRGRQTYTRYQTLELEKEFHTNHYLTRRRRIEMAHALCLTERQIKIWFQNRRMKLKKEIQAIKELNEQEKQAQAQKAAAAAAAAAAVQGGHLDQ
UniProt O46036: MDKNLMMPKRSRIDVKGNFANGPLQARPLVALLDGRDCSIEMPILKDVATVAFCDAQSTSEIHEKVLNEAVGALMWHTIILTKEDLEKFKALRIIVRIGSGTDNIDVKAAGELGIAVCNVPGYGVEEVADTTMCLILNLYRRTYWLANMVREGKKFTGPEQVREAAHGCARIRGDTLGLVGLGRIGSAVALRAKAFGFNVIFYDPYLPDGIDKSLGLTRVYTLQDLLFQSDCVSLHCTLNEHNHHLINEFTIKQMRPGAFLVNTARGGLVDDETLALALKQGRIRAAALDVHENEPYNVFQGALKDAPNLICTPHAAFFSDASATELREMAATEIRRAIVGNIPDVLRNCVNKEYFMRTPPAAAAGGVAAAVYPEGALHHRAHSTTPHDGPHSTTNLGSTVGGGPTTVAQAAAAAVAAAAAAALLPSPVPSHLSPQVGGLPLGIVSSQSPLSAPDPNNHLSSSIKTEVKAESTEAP
UniProt Q9VWC6: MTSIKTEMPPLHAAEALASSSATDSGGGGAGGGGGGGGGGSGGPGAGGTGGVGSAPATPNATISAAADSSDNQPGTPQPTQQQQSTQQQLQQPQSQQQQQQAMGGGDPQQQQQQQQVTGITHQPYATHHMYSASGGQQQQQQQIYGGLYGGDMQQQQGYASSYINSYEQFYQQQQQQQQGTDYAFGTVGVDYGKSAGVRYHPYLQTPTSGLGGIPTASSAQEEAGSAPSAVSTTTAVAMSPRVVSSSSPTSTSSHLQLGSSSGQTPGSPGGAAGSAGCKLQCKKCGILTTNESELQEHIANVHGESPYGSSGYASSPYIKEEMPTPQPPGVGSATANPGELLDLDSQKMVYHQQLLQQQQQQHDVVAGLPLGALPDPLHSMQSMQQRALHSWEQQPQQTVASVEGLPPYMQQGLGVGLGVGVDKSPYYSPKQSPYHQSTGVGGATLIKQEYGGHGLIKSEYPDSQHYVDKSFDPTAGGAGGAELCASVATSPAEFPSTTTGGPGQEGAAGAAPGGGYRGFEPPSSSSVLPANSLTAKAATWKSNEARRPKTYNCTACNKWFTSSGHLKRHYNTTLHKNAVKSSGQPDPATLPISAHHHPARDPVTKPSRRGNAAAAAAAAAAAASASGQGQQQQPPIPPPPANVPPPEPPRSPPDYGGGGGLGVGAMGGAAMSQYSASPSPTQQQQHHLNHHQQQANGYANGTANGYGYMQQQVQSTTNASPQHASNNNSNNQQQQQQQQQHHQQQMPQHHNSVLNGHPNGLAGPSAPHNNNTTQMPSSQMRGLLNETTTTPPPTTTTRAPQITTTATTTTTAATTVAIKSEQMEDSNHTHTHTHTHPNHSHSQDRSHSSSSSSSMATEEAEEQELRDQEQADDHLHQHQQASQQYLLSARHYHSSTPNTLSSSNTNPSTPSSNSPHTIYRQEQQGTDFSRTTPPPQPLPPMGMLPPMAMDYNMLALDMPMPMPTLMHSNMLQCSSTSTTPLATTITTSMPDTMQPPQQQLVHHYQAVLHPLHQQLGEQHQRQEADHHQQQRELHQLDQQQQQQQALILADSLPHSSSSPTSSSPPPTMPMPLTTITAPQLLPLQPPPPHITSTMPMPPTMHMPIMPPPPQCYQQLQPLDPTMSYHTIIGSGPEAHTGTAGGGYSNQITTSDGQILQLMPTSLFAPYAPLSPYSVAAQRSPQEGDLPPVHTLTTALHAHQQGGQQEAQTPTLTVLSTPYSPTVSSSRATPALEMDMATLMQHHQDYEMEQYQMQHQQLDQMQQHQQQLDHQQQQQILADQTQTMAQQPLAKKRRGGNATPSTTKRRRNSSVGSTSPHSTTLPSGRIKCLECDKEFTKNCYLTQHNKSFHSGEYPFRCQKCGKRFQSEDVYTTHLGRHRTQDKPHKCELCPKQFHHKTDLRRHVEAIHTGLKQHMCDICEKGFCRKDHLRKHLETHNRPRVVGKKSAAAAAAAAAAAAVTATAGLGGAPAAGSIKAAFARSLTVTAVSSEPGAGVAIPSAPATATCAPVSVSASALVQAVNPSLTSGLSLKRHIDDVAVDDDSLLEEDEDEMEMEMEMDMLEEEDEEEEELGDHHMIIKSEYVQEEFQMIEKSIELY

Biological target: GFP-Ubx expressed from the endogenous Ubx locus (Drosophila (endogenous in embryos)) (UniProt P83949)
Experiment: co-IP; embryos (w1118 control or endogenous GFP-Ubx) fixed with 3.2% formaldehyde; nuclear lysate sonicated, Benzonase treated, in NP40 buffer (20 mM Tris pH 7.5, 150 mM NaCl, 2 mM EDTA, 1% NP40), overnight with GFP-Trap beads; immunoblot; endogenous levels of all proteins

Substance: C-terminal binding protein (CtBP), endogenous (from UniProt O46036 1-476)
- binding: binds

Substance: Zelda (Zld), endogenous (from UniProt Q9VWC6 1-1596)
- binding: binds
